Where a SMILES comes first, the peptide text is derived from it. [ ]: non-standard residue; d: D form.
Assay: Isothermal titration calorimetry (ITC), peptide binding to LTA
Parameters: species or system S. aureus
Details: 200 µM peptide titrated into 37.2 µM LTA-SA, 37 °C, three experiments averaged, independent model
Description: The interaction between the D-CATH-2 peptides and LTA-SA was tested using isothermal titration calorimetry (ITC). All ITC experiments were performed on a Low Volume NanoITC (TA instruments - Waters LLC, New Castle, USA). Peptide solution or 37.2 µM LTA-SA was prepared in MilliQ:dPBS (Gibco) in a 3:1 ratio. The chamber was filled with 164 µL LTA-SA and the peptide was loaded in the 50 µL syringe. Every 300 s, 1.99 µL peptide was titrated into the chamber at 37 °C. Data was analyzed using the Nano Analyze software (TA instruments-Waters LLC). The data of three experiments was averaged and an independent model was used to determine the peptide-LTA interaction.

SMILES	n, number of peptide molecules binding to one LPS molecule	ΔH, enthalpy changes [kJ/mol]	ΔS, entropy changes [J/mol·K]
CC[C@@H](C)[C@@H](NC(=O)[C@@H](CCCCN)NC(=O)[C@@H](CCCNC(=N)N)NC(=O)[C@@H](CC(C)C)NC(=O)[C@@H](Cc1ccccc1)NC(=O)[C@H](N)CCCNC(=N)N)C(=O)N[C@H](CCCNC(=N)N)C(=O)N[C@H](CCCNC(=N)N)C(=O)N[C@H](Cc1ccccc1)C(=O)N[C@H](CCCNC(=N)N)C(=O)N1CCC[C@@H]1C(=O)N[C@H](CCCCN)C(=O)N[C@@H](C(=O)N[C@@H](C(=O)N[C@@H](C(=O)N[C@@H](C(=O)N[C@@H](C(=O)N[C@H](CCC(N)=O)C(N)=O)[C@H](C)CC)[C@H](C)O)[C@H](C)CC)[C@H](C)O)C(C)C [D-C(4–21)] (H-[dR][dF][dL][dR][dK][dI][dR][dR][dF][dR][dP][dK][dV][dT][dI][dT][dI][dQ]-NH2; N-terminus and C-terminus assumed)	1.209	-16.73	54.68
CC[C@@H](C)[C@@H](NC(=O)[C@@H](CCCCN)NC(=O)[C@@H](CCCNC(=N)N)NC(=O)[C@@H](CC(C)C)NC(=O)[C@@H](Cc1ccccc1)NC(=O)[C@@H](CCCNC(=N)N)NC(=O)CNC(=O)[C@@H](Cc1ccccc1)NC(=O)[C@H](N)CCCNC(=N)N)C(=O)N[C@H](CCCNC(=N)N)C(=O)N[C@H](CCCNC(=N)N)C(=O)N[C@H](Cc1ccccc1)C(=O)N[C@H](CCCNC(=N)N)C(=O)N1CCC[C@@H]1C(=O)N[C@H](CCCCN)C(=O)N[C@@H](C(=O)N[C@@H](C(=O)N[C@@H](C(=O)N[C@@H](C(=O)N[C@@H](C(=O)N[C@H](CCC(N)=O)C(N)=O)[C@H](C)CC)[C@H](C)O)[C@H](C)CC)[C@H](C)O)C(C)C [D-C(1–21)] (H-[dR][dF]G[dR][dF][dL][dR][dK][dI][dR][dR][dF][dR][dP][dK][dV][dT][dI][dT][dI][dQ]-NH2; N-terminus and C-terminus assumed)	0.207	-85.64	−180.6
CC[C@@H](C)[C@@H](NC(=O)[C@@H](CCCCN)NC(=O)[C@@H](CCCNC(=N)N)NC(=O)[C@@H](CC(C)C)NC(=O)[C@@H](Cc1ccccc1)NC(=O)[C@@H](CCCNC(=N)N)NC(=O)CNC(=O)[C@@H](Cc1ccccc1)NC(=O)[C@H](N)CCCNC(=N)N)C(=O)N[C@H](CCCNC(=N)N)C(=O)N[C@H](CCCNC(=N)N)C(=O)N[C@H](Cc1ccccc1)C(=O)N[C@H](CCCNC(=N)N)C(=O)N1CCC[C@@H]1C(=O)N[C@H](CCCCN)C(=O)N[C@@H](C(=O)N[C@@H](C(=O)N[C@@H](C(=O)N[C@@H](C(=O)N[C@@H](C(=O)N[C@H](CCC(N)=O)C(=O)NCC(=O)N[C@H](CO)C(=O)N[C@H](C)C(=O)N[C@H](CCCNC(=N)N)C(=O)N[C@H](Cc1ccccc1)C(N)=O)[C@H](C)CC)[C@H](C)O)[C@H](C)CC)[C@H](C)O)C(C)C [D-CATH-2] (H-[dR][dF]G[dR][dF][dL][dR][dK][dI][dR][dR][dF][dR][dP][dK][dV][dT][dI][dT][dI][dQ]G[dS][dA][dR][dF]-NH2; N-terminus assumed)	0.543	-21.16	37.39

Source: publication PMC8799869, “D-enantiomers of CATH-2 enhance the response of macrophages against Streptococcus suis serotype 2” (Journal of Advanced Research, 2021)
